Values joined by “and” are separate entries in the source; they are usually repeats but may differ in a detail not shown here. Equal values may be shown once. The source gives many values for each of these; only a part stands here.
Test system: SW 1271 complex spheroids, viability
Assay: Anticancer human tumor SW 1271 cell line growth inhibition [LSD1];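 note: spheroids exposed to agents for 7 days before luminescence read; 100% = DMSO vehicle control viability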
Settings: compound 10 µM; active compounds read low
Excerpt: Multicellular complex tumor spheroid response to LSD1 Inhibitor Iadademstat in combination with a variety of drugs and investigational agents in selected tumor cell lines
The current study was undertaken to assess response to LSD1 inhibitors in combination with standard-of-care drugs and investigational agents in solid tumor complex spheroid models as well as in the K-562 leukemia. Complex spheroids include a stromal component modeled by human endothelial cells (HUVEC) and fibroblasts modeled by human mesenchymal stem cells (MSCs). The concentration ranges selected for each drug and investigational agent were based upon clinically achievable concentrations if the clinical Cmax of the agent was known.
Compounds. The drugs and investigational agents used in this study are listed on Table 1. All of the agents used, including staurosporine (NSC755774) and gemcitabine (NSC613327), were obtained from the Developmental Therapeutics Program, NCI. FDA-approved anticancer drugs are available from the NCI at http://dtp.nci.nih.gov/branches/dscb/oncology_drugset_explanation.html. Drugs and investigational agents were >95% pure by proton nuclear magnetic resonance (NMR) and liquid chromatography/mass spectrometry (LC/MS). […] If the clinical Cmax for an agent had not been determined, the highest concentration tested was 10 microM. […]

In the case of `NC1CCC(NC2CC2c2ccccc2)CC1` (stereo unspecified), the viability, T/C is reported as 87% and 83.4%.
